From patent US20160046678A1 (ZYNGENIA, published 2016)
Results are given in words; binding and its absence hold for the method and conditions named. Some entries that bind do so weakly or less than the wild type.

T1: Angiopoietin-2 (Ang2) (human, UniProt O15123 19-496, biotin label in Examples 22-24)
T1 construct: also called rhAng2; recombinant Ang2
T1 sequence (looked up): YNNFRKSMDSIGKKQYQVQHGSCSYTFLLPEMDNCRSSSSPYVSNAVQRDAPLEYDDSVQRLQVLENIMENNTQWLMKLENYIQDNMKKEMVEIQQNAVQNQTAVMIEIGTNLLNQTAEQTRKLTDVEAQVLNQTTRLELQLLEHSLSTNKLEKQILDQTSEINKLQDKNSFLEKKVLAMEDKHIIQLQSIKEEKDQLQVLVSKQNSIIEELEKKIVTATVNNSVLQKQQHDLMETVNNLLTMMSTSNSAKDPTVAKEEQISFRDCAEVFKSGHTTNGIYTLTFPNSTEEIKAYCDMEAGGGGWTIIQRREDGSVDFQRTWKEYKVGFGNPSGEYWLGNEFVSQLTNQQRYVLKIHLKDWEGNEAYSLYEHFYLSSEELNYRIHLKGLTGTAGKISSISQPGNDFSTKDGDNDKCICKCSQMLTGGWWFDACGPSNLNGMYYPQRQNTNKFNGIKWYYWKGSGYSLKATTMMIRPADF

B1: ANG103 (peptide)
peptide: DCYYYPNPSWCW
B2: ANG104 (peptide)
peptide: DCYYFPNPQWCF
B3: ANG106 (peptide)
peptide: QCPWWYDHYWCN
B4: ANG107 (peptide)
peptide: FCDFYDYHYVCF
B5: ANG108 (peptide)
peptide: VCPYWWDHWLCL
B6: ANG109 (peptide)
peptide: MCPFWYDHELCV
B7: ANG110 (peptide)
peptide: ICPWWYDHYTCF
B8: ANG111 (peptide)
peptide: ACDWFQNPYVCW
B9: ANG112 (peptide)
peptide: PCAWYPNPAECY
B10: ANG113 (peptide)
peptide: ECPFWYDHYMCM
B11: ANG114 (peptide)
peptide: PCHWFPNPTECY
B12: ANG116 (peptide)
peptide: ECYTFPNPQFCY
B13: ANG118 (peptide)
peptide: SCYSYPNPAWCY
B14: ANG119 (peptide)
peptide: ECYWYPNPHWCR
B15: ANG120 (peptide)
peptide: HCYWHPSPNWCR
B16: ANG121 (peptide)
peptide: HCPDWYNHQLCP
B17: ANG122 (peptide)
peptide: ACVWFPNPDWCY
B18: ANG123 (peptide)
peptide: LGPVLLECYFYPNPQHCY
B19: ANG128 (peptide)
peptide: GYRDCYFYPNPRHCYGSH
B20: ANG130 (peptide)
peptide: LVNDCFFFPNPPHCYVSS
B21: ANG131 (peptide)
peptide: RMADCYFYPNPQHCYTEG
B22: ANG132 (peptide)
peptide: DEQACYFYPNPAHCYQRD
B23: ANG133 (peptide)
peptide: FLGAMMDCYFFPNPPHCY
B24: ANG134 (peptide)
peptide: VYQDCYNFPNPVHCYRTT
B25: ANG135 (peptide)
peptide: LVDYSMDCYFFPNPPHCY
B26: ANG136 (peptide)
peptide: HSLIYHDCYFYPNPPHCY
B27: ANG137 (peptide)
peptide: LLSVLLECYFYPNPPHCY
B28: ANG138 (peptide)
peptide: PTDVLLECYLYPNPPHCY
B29: ANG139 (peptide)
peptide: SLPLRAFCYFPPNWPHCY
B30: ANG142 (peptide)
peptide: TDTDCYFFPNPPHCYSPG
B31: ANG143 (peptide)
peptide: IYDDCYIFPNPHHCYVGF
B32: ANG144 (peptide)
peptide: PWHECYWYPNPPHCYGIL
B33: ANG145 (peptide)
peptide: MPLIFSECYSYPNPPHCY
B34: ANG148 (peptide)
peptide: GNFAHEECYFYPNPAHCY
B35: ANG149 (peptide)
peptide: QPRLLHDCYFYPNPSHCY
B36: ANG150 (peptide)
peptide: NPTDCYFYPNPQHCYNWG
B37: ANG151 (peptide)
peptide: YPFFLVDCYFFPNPLHCY
B38: ANG153 (peptide)
peptide: SVAHVHGLLLLPESDALL
B39: ANG154 (peptide)
peptide: GEYDCYFYPNPPHCYDRN
B40: ANG158 (peptide)
peptide: HFSDCFFYPNPQHCYHMM
B41: ANG159 (peptide)
peptide: PIEDCYFYPNPRHCYLQP
B42: ANG161 (peptide)
peptide: VVLPSYDCYFYPNPPHCY
B43: ANG164 (peptide)
peptide: FVSSAFDCYFYPNPAHCY
B44: ANG165 (peptide)
peptide: ALVECYFYPNPLHCYNTS
B45: ANG166 (peptide)
peptide: FWYSLDDCYFYPNPSHCY
B46: ANG169 (peptide)
peptide: RSNLMTDCYYYPNPPHCY
B47: ANG172 (peptide)
peptide: QLVDCLYYPNPPHCYESM
B48: ANG174 (peptide)
peptide: WDVDCGFFPNPAYCYELG
B49: ANG175 (peptide)
peptide: LQGRMIDCYSYPNPPHCY
B50: ANG176 (peptide)
peptide: QRDPLAACYIYPNPPHCY
B51: ANG180 (peptide)
peptide: QDIDCYFYPNPPHCYHVT

The binders below were run against T1, Angiopoietin-2 (Ang2) (assay: Example 48, method not detailed).

Binder	binding
B1	binds
B2	binds
B3	binds
B4	binds
B5	binds
B6	binds
B7	binds
B8	binds
B9	binds
B10	binds
B11	binds
B12	binds
B13	binds
B14	binds
B15	binds
B16	binds
B17	binds
B18	binds
B19	binds
B20	binds
B21	binds
B22	binds
B23	binds
B24	binds
B25	binds
B26	binds

Binder	binding
B27	binds
B28	binds
B29	binds
B30	binds
B31	binds
B32	binds
B33	binds
B34	binds
B35	binds
B36	binds
B37	binds
B38	binds
B39	binds
B40	binds
B41	binds
B42	binds
B43	binds
B44	binds
B45	binds
B46	binds
B47	binds
B48	binds
B49	binds
B50	binds
B51	binds
